Reference: PubChem BioAssay AID504784 (Drosophila RNAi Screening Center, 2011)
The deposit covers about 17,000 reagents; this is a random part of those with a known target gene and a result. 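Each column is one replicate's B-score; the combined score over replicates was not deposited, so single values may mislead.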 Reagents against one gene are numbered here. Names joined by + are all predicted targets of the reagent. Not all columns of the deposit are shown.

- Aim: 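Search for regulators of lipid droplet storage in oleate-fed fly cells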 (primary screen)
- Cells: Drosophila Kc167 embryonic cells
- Reagents: long dsRNA against Drosophila genes, about 250 ng dsRNA per well
- Duration: 4 days
- Challenge: cells fed 400 µM oleic acid bound to BSA
- Read-out: 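Microscope images give a droplet-to-nucleus area ratio, taken as log and converted to a screen-wide B-score; higher values mean greater lipid storage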
- Scale: droplet/nuclear area B-score: higher = more stored lipid (overstorage)

For sals #1, the entry reads droplet/nuclear area B-score, replicate 1 = -2.44. Silencing of sals #2 resulted in: droplet/nuclear area B-score, replicate 1 = -0.38. Depletion of Cht9 resulted in: droplet/nuclear area B-score, replicate 1 = 1.12. For Cp190, the values are droplet/nuclear area B-score, replicate 1 = -0.00357. CG34199 gave droplet/nuclear area B-score, replicate 1 = 0.41. After knock-down of ATPsynF, the record shows droplet/nuclear area B-score, replicate 1 = 0.836.

Depletion of GstE13 gave: droplet/nuclear area B-score, replicate 1 = -1.22. With knock-down of RpL35A, the screen gave droplet/nuclear area B-score, replicate 1 = 1.32. With knock-down of Acp98AB (retired record), the record shows droplet/nuclear area B-score, replicate 1 = -0.674. CG30323 gave droplet/nuclear area B-score, replicate 1 = 0.75. With knock-down of alpha-Est5 the results were droplet/nuclear area B-score, replicate 1 = -2.73. For Gug the deposit lists droplet/nuclear area B-score, replicate 1 = 0.0179.

Knock-down of CG18518 resulted in: droplet/nuclear area B-score, replicate 1 = -1.36. Against GNBP1 #1, the entry reads droplet/nuclear area B-score, replicate 1 = -0.615. With knock-down of GNBP1 #2 the results were droplet/nuclear area B-score, replicate 1 = 3.07. Depletion of AkhR came out at: droplet/nuclear area B-score, replicate 1 = -1.72. After knock-down of CG8677 the results were droplet/nuclear area B-score, replicate 1 = 0.391. Tehao showed droplet/nuclear area B-score, replicate 1 = 0.987.

Knock-down of CG1137 resulted in: droplet/nuclear area B-score, replicate 1 = -0.851. rdx #1 scored droplet/nuclear area B-score, replicate 1 = 1.63. rdx #2 showed droplet/nuclear area B-score, replicate 1 = -0.796. rdx #3 showed droplet/nuclear area B-score, replicate 1 = 0.972. Knock-down of RpL22 #1 resulted in: droplet/nuclear area B-score, replicate 1 = -0.043. Against RpL22 #2, the values are droplet/nuclear area B-score, replicate 1 = 2.56.

After knock-down of Jig, the screen gave droplet/nuclear area B-score, replicate 1 = -0.45. Against tobi, the values are droplet/nuclear area B-score, replicate 1 = -0.802. Rbp4 showed droplet/nuclear area B-score, replicate 1 = -0.246. Depletion of l(2)gl gave: droplet/nuclear area B-score, replicate 1 = -0.872.

Part of the list above, set out differently.
GNBP1 #2
- droplet/nuclear area B-score, replicate 1: 3.07

AkhR
- droplet/nuclear area B-score, replicate 1: -1.72

CG8677
- droplet/nuclear area B-score, replicate 1: 0.391

The results go on.
Alg2 showed droplet/nuclear area B-score, replicate 1 = 0.224. After knock-down of CG32236 the results were droplet/nuclear area B-score, replicate 1 = 2.17. Depletion of CG14200 #1 resulted in: droplet/nuclear area B-score, replicate 1 = -1.57. After knock-down of CG14200 #2 the results were droplet/nuclear area B-score, replicate 1 = 0.549. CG31612 #1 showed droplet/nuclear area B-score, replicate 1 = 1.2. Silencing of CG31612 #2 came out at: droplet/nuclear area B-score, replicate 1 = -0.691.

Depletion of CG11777 came out at: droplet/nuclear area B-score, replicate 1 = -1.25. With knock-down of cu #1, the record shows droplet/nuclear area B-score, replicate 1 = 0.0823. For cu #2, the values are droplet/nuclear area B-score, replicate 1 = -0.63. With knock-down of CG32081, the screen gave droplet/nuclear area B-score, replicate 1 = 0.721. With knock-down of Ndg, the record shows droplet/nuclear area B-score, replicate 1 = 0.223. Tcs5 gave droplet/nuclear area B-score, replicate 1 = 1.44.

With knock-down of Cpr66D #1, the screen gave droplet/nuclear area B-score, replicate 1 = -0.0207. Depletion of Cpr66D #2 gave: droplet/nuclear area B-score, replicate 1 = 0.868. Cpr66D #3 gave droplet/nuclear area B-score, replicate 1 = 0.0151. Against CG9988, the values are droplet/nuclear area B-score, replicate 1 = 1.57. With knock-down of fabp + sea #1 the results were droplet/nuclear area B-score, replicate 1 = 7.94. After knock-down of fabp + sea #2 the results were droplet/nuclear area B-score, replicate 1 = 8.05.

After knock-down of ham #1 the results were droplet/nuclear area B-score, replicate 1 = -0.241. With knock-down of ham #2, the record shows droplet/nuclear area B-score, replicate 1 = -0.282. Silencing of ham #3 resulted in: droplet/nuclear area B-score, replicate 1 = 0.48. Silencing of Hpd gave: droplet/nuclear area B-score, replicate 1 = -0.0902. Silencing of Glg1 #1 gave: droplet/nuclear area B-score, replicate 1 = -0.243. Knock-down of Glg1 #2 came out at: droplet/nuclear area B-score, replicate 1 = 0.307.

With knock-down of Glg1 #3 the results were droplet/nuclear area B-score, replicate 1 = -1.79.
